Data: PMC10546721
These are yes or no findings as the source states them, for the method shown. In cells and extracts the contact can be indirect. Some results given as binding are weak or reduced against the parent protein; the word gives no strength. Where a sequence is shown, tags or fusion partners need not be part of it.

The chains behind the UniProt entries cited, without tags or fusion partners. Residues count along the entry.
UniProt O00206, residues 24-839: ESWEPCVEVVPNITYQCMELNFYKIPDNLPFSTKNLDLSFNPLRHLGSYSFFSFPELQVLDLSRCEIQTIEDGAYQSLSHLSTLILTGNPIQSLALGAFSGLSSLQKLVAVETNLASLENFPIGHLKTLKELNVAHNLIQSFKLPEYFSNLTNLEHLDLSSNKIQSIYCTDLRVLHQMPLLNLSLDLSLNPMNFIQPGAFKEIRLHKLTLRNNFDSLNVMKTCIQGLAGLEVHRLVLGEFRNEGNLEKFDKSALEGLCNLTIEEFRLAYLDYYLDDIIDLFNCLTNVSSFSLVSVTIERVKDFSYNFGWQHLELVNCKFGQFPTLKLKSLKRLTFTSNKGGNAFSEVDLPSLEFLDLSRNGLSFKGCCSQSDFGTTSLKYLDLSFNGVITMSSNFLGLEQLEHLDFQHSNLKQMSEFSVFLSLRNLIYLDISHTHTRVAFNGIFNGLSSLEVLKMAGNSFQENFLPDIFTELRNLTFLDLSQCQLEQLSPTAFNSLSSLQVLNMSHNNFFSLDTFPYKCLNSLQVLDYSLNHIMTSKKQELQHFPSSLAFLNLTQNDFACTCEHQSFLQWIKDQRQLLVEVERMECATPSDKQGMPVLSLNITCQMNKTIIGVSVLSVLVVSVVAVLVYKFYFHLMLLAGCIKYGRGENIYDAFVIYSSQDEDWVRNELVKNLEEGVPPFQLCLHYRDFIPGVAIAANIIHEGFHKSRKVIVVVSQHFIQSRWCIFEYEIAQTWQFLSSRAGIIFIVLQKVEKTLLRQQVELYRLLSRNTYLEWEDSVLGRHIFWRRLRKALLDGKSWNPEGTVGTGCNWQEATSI

Biological target: T1, lipopolysaccharide binding protein (LBP) fused with 3X-FLAG (human) (UniProt P18428)
T1 sequence: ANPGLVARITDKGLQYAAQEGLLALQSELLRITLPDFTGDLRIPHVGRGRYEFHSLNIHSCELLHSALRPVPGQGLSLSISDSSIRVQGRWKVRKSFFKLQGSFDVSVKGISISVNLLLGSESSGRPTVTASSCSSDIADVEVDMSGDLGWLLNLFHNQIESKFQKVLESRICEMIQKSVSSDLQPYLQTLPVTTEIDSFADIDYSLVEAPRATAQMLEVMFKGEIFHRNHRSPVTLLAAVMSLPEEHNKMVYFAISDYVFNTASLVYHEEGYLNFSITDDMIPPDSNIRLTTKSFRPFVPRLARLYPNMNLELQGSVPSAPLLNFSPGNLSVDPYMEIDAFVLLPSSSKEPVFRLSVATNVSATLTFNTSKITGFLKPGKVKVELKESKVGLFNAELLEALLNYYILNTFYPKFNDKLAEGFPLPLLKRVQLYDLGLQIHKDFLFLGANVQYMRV
Assay: co-IP; simultaneous overexpression of LBP and TLR4 in PMA-THP-1 cells; immunoblot; bait and antibodies not given

With “TLR4 fused with 3X-Flag (overexpression plasmid) (from UniProt O00206 24-839) (receptor)” the binding was “binds”.
